Assay results from PubChem BioAssay AID493014 (National Center for Advancing Translational Sciences (NCATS), 2011).
The other results are listed elsewhere or left out. These are further read-outs of the screen, such as a control signal, another cell line or another target. No call is given for them. The list favours compounds with an active or inconclusive main result. Words in brackets tell the shape of the fitted curve; partial curves, single points and poor fits give uncertain potencies.

Test: qHTS Assay to Find Inhibitors of Chronic Active B-Cell Receptor Signaling
Settings: ABC-DLBCL IkBa-CBG/CBR reporter, luminescence ratio (green luciferase fused to IkBa over red control in TMD8 lymphoma cells), 4 h
Outline: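 Compounds up to 46 uM were incubated four hours with TMD8 cells whose green CBG68 luciferase is fused to IkappaBalpha; red CBR luminescence normalised the signal, and concentration-effect curves were fitted to fusion, red and ratio data.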

[1] = measured here: CBR red luminescence, cell number
[2] = measured here: IkBa-CBG green luminescence

## Cc1ccc(C(=O)N2CCc3cc(CNC(=O)CCc4ccccc4)ccc32)cc1
[1]
  AC50: 35.5 µM [falling, single point]

## O=C(c1ccccc1)N1CCN(C(=S)NCCc2ccccc2)CC1
[1]
  AC50: 29.1 µM [rising, single point]

## O=C1c2ccccc2C(=O)N1CC1c2ccccc2CCN1C(=O)C1CCCCC1 (stereo not drawn)
[1]
  AC50: 32.6 µM [falling, single point]

## COc1ccc(C(=O)Nc2ccc(Cl)cn2)cc1Cl
[1]
  AC50: 14.1 µM [falling, partial curve, poor fit]

## Cc1ccccc1NC(=O)CCN1CCc2ccccc2C1
[1]
  AC50: 7.94 µM [falling, partial curve, poor fit]

## CC(O)Cc1cn([C@@H](CCCCNC(=O)OC(C)(C)C)C(=O)N2CCN(C(=O)OC(C)(C)C)CC2)nn1 (stereo partly drawn)
[1]
  AC50: 35.5 µM [rising, single point]

## Cc1c(/C=N\NC(=O)c2cc3ccccc3o2)c2ccccc2n1C
[1]
  AC50: 31.6 µM [rising, partial curve, poor fit]
[2]
  AC50: 12.6 µM [falling, partial curve, poor fit]

## COc1ccc2c(c1)C(=O)N1[C@H]3c4cc(C)ccc4OC[C@@H]3[C@H](c3ccccc3)[C@]1(C)C(=O)N2
[1]
  AC50: 5.8 µM [falling, full curve]
[2]
  AC50: 5.17 µM [rising, full curve, poor fit]

## Nc1nc(CSc2ccc(Cl)cc2)nc(N2CCCCC2)n1
[1]
  AC50: 14.1 µM [rising, partial curve, poor fit]

## CCOC(=O)CSc1nnc(-c2ccccc2)o1
[1]
  AC50: 13 µM [rising, partial curve]
[2]
  AC50: 11.6 µM [rising, partial curve, poor fit]

## O=C(Nc1ccccc1)Nc1nc(-c2ccccc2)cs1
[1]
  AC50: 10 µM [falling, partial curve]

## O=C(Nc1cccc(-c2cn3c(n2)SCC3)c1)c1ccc(Br)o1
[1]
  AC50: 22.4 µM [falling, single point]

## COc1cc(OC)cc(C(=O)NC(C(=O)Nc2ccc3nc(C)sc3c2)C(C)C)c1 (stereo not drawn)
[1]
  AC50: 9.2 µM [rising, partial curve, poor fit]

## Cc1ccc(NC(=O)Cn2nc(C(=O)O)c3ccccc3c2=O)c([N+](=O)[O-])c1
[1]
  AC50: 0.112 µM [rising, full curve, poor fit]

## Cc1cc(C)c(C(N)=O)c(Nc2cccc(Cl)c2)n1
[1]
  AC50: 16.4 µM [rising, partial curve, poor fit]

## COc1ccccc1-n1c(CNC(=O)COc2ccccc2)n[nH]c1=S
[1]
  AC50: 1.64 µM [falling, full curve]

## COc1cccc(-c2noc(CCCC(=O)N3CCOCC3)n2)c1
[1]
  AC50: 0.631 µM [rising, full curve, poor fit]
[2]
  AC50: 3.16 µM [rising, partial curve, poor fit]

## CCn1c(O)c(N=Nc2ccc3ccccc3n2)c2ccccc21
[1]
  AC50: 0.355 µM [falling, full curve, poor fit]

## Cc1cc(C)c2c(=O)[nH]c(SCC(=O)Nc3ccc(N(C)C)cc3)nc2n1
[1]
  AC50: 0.501 µM [falling, full curve, poor fit]

## Cc1ccccc1OCc1nc2ccccc2[nH]1
[1]
  AC50: 15.8 µM [falling, partial curve]

## CCc1cc2c(SCC(=O)N(C)C3CCS(=O)(=O)C3)ncnc2s1 (stereo not drawn)
[1]
  AC50: 25.1 µM [rising, single point]

## COc1ccccc1/C=C/C(=O)NCC(=O)N=Nc1c(O)[nH]c2ccccc12
[1]
  AC50: 8.91 µM [falling, partial curve, poor fit]

## COC(=O)C1CN(C(=O)COc2ccc(C)c(C)c2)c2ccccc2O1 (stereo not drawn)
[1]
  AC50: 35.5 µM [falling, single point]

## CC(C)CCSc1nnc(N)s1
[1]
  AC50: 5.01 µM [rising, partial curve, poor fit]

## Cc1cccc([C@@H]2[C@@H]3C(=O)N(Cc4ccccc4)C(=O)[C@@H]3[C@]3(C)C(=O)N(c4cccc(F)c4)C(=O)N23)c1
[1]
  AC50: 18.4 µM [falling, partial curve]

## C=CCNC(=O)c1onc(CSc2ccc(Cl)cc2)c1C(=O)NCC=C
[1]
  AC50: 12.6 µM [falling, single point]

## C=CC[n+]1c(C)csc1Nc1ccc(C)cc1
[1]
  AC50: 12.6 µM [rising, partial curve, poor fit]

## COc1ccc(-n2c(=O)c3c4c(sc3n(CC(=O)NC3CCCC3)c2=O)CCCC4)c(OC)c1
[1]
  AC50: 12.6 µM [falling, partial curve, poor fit]

## CCOc1cccc2cc(C(C)=O)oc12
[1]
  AC50: 0.708 µM [falling, full curve, poor fit]

## C=CCSc1nc2ccccc2n2cnnc12
[1]
  AC50: 35.5 µM [falling, single point]

## CCC(C)c1ccc(O)c(NC(=O)c2ncn[nH]2)c1 (stereo not drawn)
[1]
  AC50: 0.58 µM [rising, full curve, poor fit]

## O=[N+]([O-])c1cc(/C=N/N2CCOCC2)cs1
[1]
  AC50: 35.5 µM [rising, single point]

## COc1ccc(/C(C)=N/NC(=O)c2nc(C)cc(C)n2)cc1
[1]
  AC50: 1.64 µM [rising, partial curve, poor fit]

## COc1ccccc1Cn1c(SCC(=O)C(C)(C)C)nc2ccccc2c1=O
[1]
  AC50: 0.112 µM [rising, full curve, poor fit]

## O=c1cc(CN2CCN(S(=O)(=O)c3ccccc3[N+](=O)[O-])CC2)nc2sccn12
[1]
  AC50: 11.2 µM [rising, partial curve, poor fit]

## Cc1cc(C(=O)CN2C(=O)C(=O)N(C3CCCC3)C2=O)c(C)n1CCc1ccc(F)cc1
[1]
  AC50: 29.1 µM [falling, single point]

## CC(C)Cc1nc2sc3c(NCc4ccco4)ncnc3c2c2c1COC(C)(C)C2
[1]
  AC50: 0.146 µM [rising, full curve, poor fit]

## CCOC(=O)N1CCN(C(=O)CSc2nnc(Cn3c(=O)sc4ccccc43)n2C)CC1
[1]
  AC50: 0.0731 µM [rising, full curve, poor fit]

## COc1cc(/C=N/OCC(=O)Nc2cc(C)cc(C)c2)ccc1OCc1ccc(Cl)cc1
[1]
  AC50: 0.731 µM [rising, full curve, poor fit]
